In the supplement of paper PMC9135407:
Where “and” joins values, the source holds several entries; their conditions need not be identical. Equal entries are not always repeated. Structures can show the parent of a compound that is named as a salt. ± gives the standard deviation of the averaged measurements. The list shows a part of the results. Part of the spread comes from offsets between plates or batches.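 Culture-activated primary human stellate myofibroblasts, where regained lipid droplets signal inactivation. Value: share of Hoechst-counted cells above a per-plate Bodipy cutoff, in duplicate wells, with DMSO negative and nortriptyline positive controls on each plate. Hits: a control-normalized score above the plate's top-tenth-percentile nortriptyline wells, or one of a plate's three best wells. Final well concentrations are not given.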

Test system: primary human hepatic stellate cells (donor 1)
Assay: percent Bodipy-positive cells; higher = more lipid droplet accumulation
Conditions: 48 h
[1] = library stock concentration: 10 mM
[2] = library stock concentration: 3.33 mM
[3] = library stock concentration: 80 uM
[4] = library stock concentration: 1 mM
[5] = library stock concentration: 400 uM
[6] = library stock concentration: 2 mM

CCC1(O)CC2CN(CCc3c([nH]c4ccccc34)[C@@](C(=O)OC)(c3cc4c(cc3OC)N(C=O)C3[C@]45CCN4CC=C[C@@](CC)([C@@H](OC(C)=O)[C@]3(O)C(=O)OC)[C@H]45)C2)C1.O=S(=O)(O)O (some centres undefined) [Vincristine sulfate]
percent Bodipy-positive cells [1]: 90.8 ± 1.8%

Cl.N/C(=N\C(=O)c1nc(Cl)c(N)nc1N)NCc1ccc(Cl)cc1Cl
percent Bodipy-positive cells (library stock concentration: 11.8 mM): 96.8 ± 1.1%

COc1ccc(Cl)cc1C(=O)NCCc1ccc(S(=O)(=O)NC(=O)NC2CCCCC2)cc1 [Glyburide]
percent Bodipy-positive cells [2]: 7.24 ± 5.6%
percent Bodipy-positive cells (library stock concentration: 4 mM): 6.55% and 11.7%

COc1ccc(Cl)cc1C(=O)NCCc1ccc(S(=O)(=O)NC(=O)NC2CCCCC2)cc1 [Glibenclamide]
percent Bodipy-positive cells: 22.3 ± 9.6%
percent Bodipy-positive cells [1]: 6.82 ± 0.56%

COc1ccc(Cl)cc1C(=O)NCCc1ccc(S(=O)(=O)NC(=O)NC2CCCCC2)cc1 [Glybenclamide]
percent Bodipy-positive cells [1]: 50.7 ± 18%

Cl.O=S(=O)(c1cccc2c(Cl)cccc12)N1CCCNCC1
percent Bodipy-positive cells [1]: 94.3 ± 4.4%

Nc1nc(=O)n([C@@H]2CS[C@H](CO)O2)cc1F [Emtricitabine]
percent Bodipy-positive cells [2]: 6.46 ± 1.5%
percent Bodipy-positive cells (library stock concentration: 8.1 mM): 8.38 ± 0.61%
percent Bodipy-positive cells [1]: 12.2 ± 5.3%

CCN(CC)CC#CCOC(=O)C(O)(c1ccccc1)C1CCCCC1.Cl (centres undefined) [Oxybutynin Chloride]
percent Bodipy-positive cells [1]: 89.8 ± 2.4%

COc1cc2ncnc(Nc3cccc(Cl)c3)c2cc1OC [AG-1478 (Tyrphostin AG-1478)]
percent Bodipy-positive cells [1]: 80.2 ± 6.3%

CC(C)=CCC1=C(O)C(=O)c2ccccc2C1=O [Lapachol]
percent Bodipy-positive cells [1]: 43.1 ± 27%

CCCOc1ccccc1-c1nc2[nH]nnc2c(=O)[nH]1 [Zaprinast]
percent Bodipy-positive cells: 24.3 ± 3.3%
percent Bodipy-positive cells [1]: 14.8% and 14.3% and 7.7%
percent Bodipy-positive cells (library stock concentration: 18.4 mM): 13.5 ± 0.4%

CCCCCCNC(=O)n1cc(F)c(=O)[nH]c1=O [Carmofur]
percent Bodipy-positive cells [2]: 9.82 ± 2.8%

COc1cccc2c1C(=O)c1c(O)c3c(c(O)c1C2=O)C[C@@](O)(C(=O)CO)C[C@@H]3O[C@H]1C[C@H](N)[C@H](O[C@@H]2CCCCO2)[C@H](C)O1 [Pirarubicin]
percent Bodipy-positive cells [2]: 100%
percent Bodipy-positive cells [1]: 100%

O=C1NC(=O)C(c2cnc3ccccn23)=C1c1cn2c3c(cc(F)cc13)CN(C(=O)N1CCCCC1)CC2
percent Bodipy-positive cells [3]: 63.9 ± 3%
percent Bodipy-positive cells [1]: 59.8 ± 3.3%

O=C(O)CCC/C=C/C[C@@H]1[C@@H](CC[C@@H](O)CCc2ccccc2)[C@H](O)C[C@@H]1O [5-trans Latanoprost (free acid)]
percent Bodipy-positive cells [4]: 10.8 ± 2.4%

COC(=O)C1=CO[C@@H](O)[C@@H]2C(CO)=CC[C@H]12 [Genipin]
percent Bodipy-positive cells [2]: 8.24 ± 0.74%

Cc1nc(C(=O)NCC(=O)O)c(O)c2ccc(Oc3ccccc3)cc12
percent Bodipy-positive cells [2]: 6.51 ± 0.6%
percent Bodipy-positive cells [1]: 21 ± 10%

C=C1C(=O)OC2CC1C(OC(C)=O)C/C(C)=C/CC/C(C)=C/CC[C@]2(C)O (some centres undefined) [Crassin acetate]
percent Bodipy-positive cells [1]: 86.2 ± 2%

COc1cc(COc2cc(N)c(Cl)cc2C(=O)CCC2CCN(CCNS(C)(=O)=O)CC2)cc(OC)c1.Cl
percent Bodipy-positive cells [1]: 99.2 ± 1.1%

CCCCCCCCCCCCCCC[C@@H](O)[C@H](CO)NC(=O)CCCCCCC [C8 Dihydroceramide]
percent Bodipy-positive cells [4]: 12.7 ± 7.1%

CN1CCN(c2nc3cc(C(F)(F)F)ccc3n3cccc23)CC1.O=C(O)/C=C\C(=O)O
percent Bodipy-positive cells [1]: 84.53 ± 0.51%

CN(C(=O)CN(CCO)CC(=O)N(C)C(C)(C)Cc1ccccc1)C(C)(C)Cc1ccccc1 [Oxethazaine]
percent Bodipy-positive cells: 42.9 ± 8%
percent Bodipy-positive cells [1]: 35 ± 5.5%

COC(=O)N/N=C/c1c[n+]([O-])c2ccccc2[n+]1[O-] [Carbadox]
percent Bodipy-positive cells (library stock concentration: 7.6 mM): 11.7% and 8.92%
percent Bodipy-positive cells [1]: 44.3 ± 5.8%

CC(C)(Oc1ccc(Cl)cc1)C(=O)OCCOC(=O)c1cccnc1 [Etofibrate]
percent Bodipy-positive cells [2]: 13.5 ± 2.5%
percent Bodipy-positive cells [1]: 37.6 ± 13%

CC1(C)O[C@@H]2C[C@H]3[C@@H]4C[C@H](F)C5=CC(=O)C=C[C@]5(C)[C@@]4(F)[C@@H](O)C[C@]3(C)[C@]2(C(=O)CO)O1 [Fluocinolone Acetonide]
percent Bodipy-positive cells [2]: 6.16 ± 2.8%
percent Bodipy-positive cells [1]: 15.2 ± 0.22%

CC1(C)O[C@@H]2C[C@H]3[C@@H]4C[C@H](F)C5=CC(=O)C=C[C@]5(C)[C@@]4(F)[C@@H](O)C[C@]3(C)[C@]2(C(=O)CO)O1 [Fluocinolone acetonide]
percent Bodipy-positive cells (library stock concentration: 4.4 mM): 6.72% and 3.96%

COc1cc(NS(=O)(=O)c2ccc(N)cc2)ncn1 [Sulfamonomethoxine]
percent Bodipy-positive cells: 9.26 ± 2.7%
percent Bodipy-positive cells (library stock concentration: 7.1 mM): 21.6 ± 3.6%
percent Bodipy-positive cells [1]: 27.6 ± 14%

CC(C)=CCc1c2c(c3occ(-c4ccc(O)c(O)c4)c(=O)c3c1O)C=CC(C)(C)O2 [Pomiferin]
percent Bodipy-positive cells [1]: 68.7 ± 8%

CCN(c1ccccc1)c1cc(=NC)n(C)c(C)n1
percent Bodipy-positive cells [1]: 5.89 ± 2.3%

CCCCCCCC/C=C\CCCCCCCC(=O)O.NCCO
percent Bodipy-positive cells [1]: 34.8 ± 5%

Cc1cc(C)nc(NS(=O)(=O)c2ccc(N)cc2)n1 [Sulfamethazine]
percent Bodipy-positive cells [2]: 8.37 ± 6.2%
percent Bodipy-positive cells (library stock concentration: 7.2 mM): 11.4 ± 0.74%
percent Bodipy-positive cells [1]: 27.3% and 19.7%

Cc1cc(C)nc(NS(=O)(=O)c2ccc(N)cc2)n1 [Sulfamethazine sodium salt]
percent Bodipy-positive cells: 8.61 ± 2.3%

CC(C)[C@H](N)C(=O)OCCOCn1cnc2c(=O)nc(N)[nH]c21
percent Bodipy-positive cells [1]: 9.96 ± 4.7%

CC(C)[C@H](N)C(=O)OCCOCn1cnc2c(=O)nc(N)[nH]c21 [Valaciclovir HCl]
percent Bodipy-positive cells [2]: 11.1 ± 2.6%
percent Bodipy-positive cells [1]: 11.8 ± 7.1%

CC(C)[C@H](N)C(=O)OCCOCn1cnc2c(=O)nc(N)[nH]c21 [Valacyclovir hydrochloride]
percent Bodipy-positive cells [1]: 37.4 ± 10%

CC(C)[C@H](N)C(=O)OCCOCn1cnc2c(=O)nc(N)[nH]c21 [Valaciclovir]
percent Bodipy-positive cells (library stock concentration: 6.2 mM): 6.59 ± 1.9%

CC[C@H](NC(=O)[C@H](C)NC)C(=O)N1C[C@@H](O)C[C@H]1Cc1c(-c2[nH]c3cc(F)ccc3c2C[C@@H]2C[C@H](O)CN2C(=O)[C@H](CC)NC(=O)[C@H](C)NC)[nH]c2cc(F)ccc12 [Birinapant]
percent Bodipy-positive cells [2]: 10.2 ± 0.39%
percent Bodipy-positive cells [1]: 61.3 ± 22%

CC(C)N(CC[C@H](c1ccccc1)c1cc(CO)ccc1O)C(C)C
percent Bodipy-positive cells [2]: 12.2 ± 3.5%
percent Bodipy-positive cells [1]: 27.6 ± 7%

Cn1cc(C(F)(F)F)nc1-c1ccc(OCC(O)CNCCOc2ccc(O)c(C(N)=O)c2)cc1 (centres undefined)
percent Bodipy-positive cells [1]: 79.86 ± 0.19%

CN1CCN2c3ncccc3Cc3ccccc3C2C1 (centres undefined) [Mirtazapine]
percent Bodipy-positive cells [2]: 22.1 ± 2.7%
percent Bodipy-positive cells [1]: 29.1 ± 0.76%

CN1CCN2c3ncccc3Cc3ccccc3C2C1 (centres undefined) [mirtazapine]
percent Bodipy-positive cells [1]: 55.7 ± 1.1%

CN1CCN2c3ncccc3Cc3ccccc3C2C1 (centres undefined) [Mirtazepine]
percent Bodipy-positive cells [1]: 14.1 ± 2.4%

CN1CCN2c3ncccc3Cc3ccccc3C2C1 (centres undefined)
percent Bodipy-positive cells [1]: 44.4 ± 12%

C[C@@H]1C/C=C/C=C/C=C/C=C/[C@H](O[C@@H]2O[C@H](C)[C@@H](O)[C@H](N)[C@@H]2O)C[C@@H]2O[C@](O)(C[C@@H](O)C[C@H]3O[C@@H]3/C=C/C(=O)O1)C[C@H](O)[C@H]2C(=O)O [Natamycin]
percent Bodipy-positive cells (library stock concentration: 3 mM): 11.6 ± 3.4%
percent Bodipy-positive cells [2]: 10.3 ± 3.2%
percent Bodipy-positive cells [1]: 8.76 ± 1.5%

CC(C(O)c1ccc(O)cc1)N1CCC(Cc2ccccc2)CC1 (centres undefined) [Ifenprodil Tartrate]
percent Bodipy-positive cells [2]: 19.1 ± 1.8%
percent Bodipy-positive cells [1]: 58.9 ± 6.3%

CC(C(O)c1ccc(O)cc1)N1CCC(Cc2ccccc2)CC1 (centres undefined) [Ifenprodil hemitartrate]
percent Bodipy-positive cells [1]: 39.8 ± 8.9%

CC(C(O)c1ccc(O)cc1)N1CCC(Cc2ccccc2)CC1 (centres undefined) [Ifenprodil]
percent Bodipy-positive cells (library stock concentration: 6.1 mM): 25 ± 4.8%
percent Bodipy-positive cells (library stock concentration: 9.6 mM): 32.2 ± 0.76%

CC(C(O)c1ccc(O)cc1)N1CCC(Cc2ccccc2)CC1 (centres undefined) [Ifenprodil tartrate]
percent Bodipy-positive cells: 44.7 ± 2.3%

CCCCCCCCCCCCCCCC(=O)N[C@@H](COP(=O)(O)O)C(=O)O
percent Bodipy-positive cells [4]: 9.81 ± 5.7%

CCCCC[C@H](O)/C=C/[C@H]1C2COC(C2)[C@@H]1C/C=C/CCCC(=O)O (some centres undefined)
percent Bodipy-positive cells [4]: 20.5 ± 3.6%

CCC1=C[C@H]2CN(C1)Cc1c([nH]c3ccccc13)[C@@](C(=O)OC)(c1cc3c(cc1OC)N(C)[C@H]1[C@@](O)(C(=O)OC)[C@H](OC(C)=O)[C@]4(CC)C=CCN5CC[C@]31[C@@H]54)C2.O=C(O)C(O)C(O)C(=O)O
percent Bodipy-positive cells [1]: 99.58 ± 0.17%

O=c1ccn([C@@H]2O[C@H](COP(=O)(O)OP(=O)(O)O)[C@@H](O)[C@H]2O)c(=O)[nH]1 [Uridine 5'-diphosphate sodium]
percent Bodipy-positive cells [1]: 14.4 ± 2.3%

O=C1Nc2ccc(Br)cc2/C1=C/c1cc2c([nH]1)CCCC2 [VEGF Receptor 2 Kinase Inhibitor II]
percent Bodipy-positive cells [2]: 79.5 ± 8.9%

Cc1ccc(OCC(O)C(C)NC(C)C)c2c1CCC2 (centres undefined) [ICI-118,551 hydrochloride]
percent Bodipy-positive cells [1]: 46.1 ± 8.9%

CCn1c(=O)c2c(nc(/C=C/c3ccc(OC)c(OC)c3)n2C)n(CC)c1=O [Istradefylline]
percent Bodipy-positive cells [2]: 16.4 ± 2.6%
percent Bodipy-positive cells [1]: 27.1 ± 2.3%

CCCn1c(=O)c(C)cn2nc(N)nc12
percent Bodipy-positive cells [1]: 21.9% and 6.16%

COc1ccc(N(C(=O)Nc2c(C)cccc2C)c2cc(Nc3ccc(N4CCN(C)CC4)cc3)ncn2)c(OC)c1
percent Bodipy-positive cells [3]: 8.15 ± 0.68%
percent Bodipy-positive cells [5]: 20.5 ± 3%
percent Bodipy-positive cells [6]: 55.1 ± 2.2%

NC(C(=O)O)C(O)C(=O)O (racemic) [DL-threo-beta-hydroxyaspartic acid]
percent Bodipy-positive cells [1]: 38.2 ± 15%

c1ccc2cc(C3=NCCN3)ncc2c1 [BU 226 hydrochloride]
percent Bodipy-positive cells [1]: 8.3 ± 1.6%

CN([C@@H](Cc1ccc(OS(=O)(=O)c2cccc3cnccc23)cc1)C(=O)N1CCN(c2ccccc2)CC1)S(=O)(=O)c1cccc2cnccc12
percent Bodipy-positive cells [3]: 5.88 ± 0.82%
percent Bodipy-positive cells [5]: 7.92 ± 2.6%
percent Bodipy-positive cells [6]: 11.9 ± 6.1%
percent Bodipy-positive cells [1]: 9.956 ± 0.023%

CC1=CC(=O)c2ccccc2C1=O [Menadione]
percent Bodipy-positive cells: 98.9 ± 1.6%

O=C(O)C1=CC(=C(c2ccc(O)c(C(=O)O)c2)c2ccc(O)c(C(=O)O)c2)C=CC1=O [Aurintricarboxylic acid]
percent Bodipy-positive cells [1]: 9.28 ± 3%

CCCCC[C@H](O)/C=C/[C@@H]1C2C[C@H](CCCCC(=O)O)O[C@@H]2C[C@H]1O (stereo partly drawn) [6.beta.-Prostaglandin I1]
percent Bodipy-positive cells [4]: 28.4 ± 6%

Nc1nc2c(cnn2CCc2ccccc2)c2nc(-c3ccco3)nn12
percent Bodipy-positive cells [1]: 57.5 ± 8.2%

CCOC(=O)c1c(C)[nH]c(/C=C2\C(=O)Nc3ccccc32)c1C [VEGF Receptor 2 Kinase Inhibitor I]
percent Bodipy-positive cells [2]: 16.8 ± 4%

CN1C(=O)/C(=C2\Nc3ccccc3\C2=N\O)c2ccc(Br)cc21 [GSK-3 Inhibitor IX, Control, MeBIO]
percent Bodipy-positive cells [2]: 84.2 ± 2%

CNC(=O)c1c(F)cccc1Nc1nc(Nc2cc3c(cc2OC)CCN3C(=O)CN(C)C)nc2[nH]ccc12
percent Bodipy-positive cells [1]: 98.61 ± 0.25%

COc1ccc2c(c1)c(CC(=O)O)c(C)n2C(=O)c1ccccc1 [1-benzoyl-5-methoxy-2-methylindole-3-acetic acid]
percent Bodipy-positive cells [1]: 34.8 ± 1.5%
